Laboratory results: the supplement of paper PMC11264405

Assays:
Experiment in all cases: minimum inhibitory concentration
[1] = compound: CN(C)c1cc(NC(=O)CNC(C)(C)C)c(O)c2c1C[C@H]1C[C@H]3[C@H](N(C)C)C(O)=C(C(N)=O)C(=O)[C@@]3(O)C(O)=C1C2=O [tigecycline]
[2] = compound: C[C@@H](O)[C@H]1C(=O)N2C(C(=O)O)=C(SCCNC=N)C[C@H]12 [imipenem]
[3] = compound: CCC[C@@H]1C[C@@H](C(=O)N[C@@H]([C@H]2O[C@H](SC)[C@H](O)[C@@H](O)[C@H]2O)[C@H](C)Cl)N(C)C1 [clindamycin]
[4] = compound: Cc1ncc([N+](=O)[O-])n1CCO [metronidazole]
[5] = compound: CCc1c(Cl)c(O)c(Cl)c(O)c1C(=O)O[C@H]1[C@H](O)[C@H](OC)[C@H](OC/C2=C\C=C\C[C@H](O)/C(C)=C/[C@H](CC)[C@@H](O[C@@H]3OC(C)(C)[C@@H](OC(=O)C(C)C)[C@H](O)[C@@H]3O)/C(C)=C/C(C)=C/C[C@@H]([C@@H](C)O)OC2=O)O[C@@H]1C [fidaxomicin]
[6] = compound: C[C@@H](O)[C@H]1C(=O)N2C(C(=O)O)=C(S[C@@H]3CN[C@H](C(=O)N(C)C)C3)[C@H](C)[C@H]12 [meropenem]
[7] = compound: CO[C@H]1/C=C/O[C@@]2(C)Oc3c(C)c(O)c4c(O)c(c(/C=N/N5CCN(C)CC5)c(O)c4c3C2=O)NC(=O)/C(C)=C\C=C\[C@H](C)[C@H](O)[C@@H](C)[C@@H](O)[C@@H](C)[C@H](OC(C)=O)[C@@H]1C [rifampicin]
[8] = compound: CN[C@H](CC(C)C)C(=O)N[C@H]1C(=O)N[C@@H](CC(N)=O)C(=O)N[C@H]2C(=O)N[C@H]3C(=O)N[C@H](C(=O)N[C@H](C(=O)O)c4cc(O)cc(O)c4-c4cc3ccc4O)[C@H](O)c3ccc(c(Cl)c3)Oc3cc2cc(c3O[C@@H]2O[C@H](CO)[C@@H](O)[C@H](O)[C@H]2O[C@H]2C[C@](C)(N)[C@H](O)[C@H](C)O2)Oc2ccc(cc2Cl)[C@H]1O [vancomycin]
[9] = compound: CC(=O)NC[C@H]1CN(c2ccc(N3CCOCC3)c(F)c2)C(=O)O1 [linezolid]

Row | Test System | minimum inhibitory concentration [1] | minimum inhibitory concentration [2] | minimum inhibitory concentration [3] | minimum inhibitory concentration [4] | minimum inhibitory concentration [5] | minimum inhibitory concentration [6] | minimum inhibitory concentration [7] | minimum inhibitory concentration [8] | minimum inhibitory concentration [9]
1 | Clostridioides difficile PCR ribotype 078 isolate #186 (European region: East, country: Poland, isolate source: Human, ribotype: 078) | < 0.03 mg/L | 2 mg/L | 16 mg/L | 0.25 mg/L | 0.06 mg/L | 2 mg/L | < 0.001 mg/L | 0.5 mg/L | 2 mg/L
2 | Clostridioides difficile PCR ribotype 078 isolate #187 (European region: North, country: UK, isolate source: Human, ribotype: 078) | < 0.03 mg/L | 1 mg/L | 8 mg/L | 0.25 mg/L | 0.125 mg/L | 2 mg/L | < 0.001 mg/L | 0.5 mg/L | 2 mg/L
3 | Clostridioides difficile PCR ribotype 078 isolate #188 (European region: North, country: UK, isolate source: Human, ribotype: 078) | < 0.03 mg/L | 2 mg/L | 1 mg/L | < 0.125 mg/L | 0.06 mg/L | 2 mg/L | < 0.001 mg/L | 1 mg/L | 2 mg/L
4 | Clostridioides difficile PCR ribotype 078 isolate #189 (European region: South, country: Spain, isolate source: Human, ribotype: 078) | 0.06 mg/L | 4 mg/L | 4 mg/L | < 0.125 mg/L | 0.03 mg/L | 2 mg/L | 0.002 mg/L | 1 mg/L | 2 mg/L
5 | Clostridioides difficile PCR ribotype 078 isolate #190 (European region: South, country: Greece, isolate source: Human, ribotype: 078) | < 0.03 mg/L | 1 mg/L | 8 mg/L | 0.25 mg/L | 0.03 mg/L | 2 mg/L | < 0.001 mg/L | 1 mg/L | 2 mg/L
6 | Clostridioides difficile PCR ribotype 078 isolate #191 (European region: West, country: Netherlands, isolate source: Human, ribotype: 078) | 0.06 mg/L | 2 mg/L | 8 mg/L | 0.25 mg/L | 0.03 mg/L | 2 mg/L | < 0.001 mg/L | 1 mg/L | 2 mg/L
7 | Clostridioides difficile PCR ribotype 078 isolate #192 (European region: West, country: Netherlands, isolate source: Human, ribotype: 078) | < 0.03 mg/L | 1 mg/L | 8 mg/L | 0.25 mg/L | 0.03 mg/L | 2 mg/L | < 0.001 mg/L | 0.5 mg/L | 0.25 mg/L
8 | Clostridioides difficile PCR ribotype 078 isolate #193 (European region: South, country: Italy, isolate source: Human, ribotype: 078) | 0.06 mg/L | 2 mg/L | 4 mg/L | < 0.125 mg/L | 0.03 mg/L | 2 mg/L | < 0.001 mg/L | 1 mg/L | 2 mg/L
9 | Clostridioides difficile PCR ribotype 078 isolate #333 (European region: West, country: Austria, isolate source: Animal, ribotype: 078) | 0.06 mg/L | 4 mg/L | 2 mg/L | 0.25 mg/L | 0.03 mg/L | 4 mg/L | < 0.001 mg/L | 0.5 mg/L | 4 mg/L
10 | Clostridioides difficile PCR ribotype 078 isolate #334 (European region: West, country: Austria, isolate source: Animal, ribotype: 078) | 0.06 mg/L | 2 mg/L | 2 mg/L | 0.25 mg/L | 0.03 mg/L | 4 mg/L | < 0.001 mg/L | 1 mg/L | 2 mg/L
11 | Clostridioides difficile PCR ribotype 078 isolate #335 (European region: West, country: Austria, isolate source: Animal, ribotype: 078) | 0.125 mg/L | 2 mg/L | 2 mg/L | < 0.125 mg/L | 0.06 mg/L | 2 mg/L | < 0.001 mg/L | 1 mg/L | 2 mg/L
12 | Clostridioides difficile PCR ribotype 078 isolate #336 (European region: South, country: Spain, isolate source: Animal, ribotype: 078) | < 0.03 mg/L | 2 mg/L | 4 mg/L | 0.25 mg/L | 0.06 mg/L | 2 mg/L | < 0.001 mg/L | 1 mg/L | 2 mg/L
